Data published in article doi:10.1101/2020.12.01.406264.
Results are given in words; binding and its absence hold for the method and conditions named. Some results given as binding are weak or reduced against the parent protein; the word gives no strength.

The chains behind the UniProt entries cited, without tags or fusion partners. Where a name states a change or a piece, a line headed by the entry shows the natural chain unless it says otherwise.
UniProt P48736, whole entry: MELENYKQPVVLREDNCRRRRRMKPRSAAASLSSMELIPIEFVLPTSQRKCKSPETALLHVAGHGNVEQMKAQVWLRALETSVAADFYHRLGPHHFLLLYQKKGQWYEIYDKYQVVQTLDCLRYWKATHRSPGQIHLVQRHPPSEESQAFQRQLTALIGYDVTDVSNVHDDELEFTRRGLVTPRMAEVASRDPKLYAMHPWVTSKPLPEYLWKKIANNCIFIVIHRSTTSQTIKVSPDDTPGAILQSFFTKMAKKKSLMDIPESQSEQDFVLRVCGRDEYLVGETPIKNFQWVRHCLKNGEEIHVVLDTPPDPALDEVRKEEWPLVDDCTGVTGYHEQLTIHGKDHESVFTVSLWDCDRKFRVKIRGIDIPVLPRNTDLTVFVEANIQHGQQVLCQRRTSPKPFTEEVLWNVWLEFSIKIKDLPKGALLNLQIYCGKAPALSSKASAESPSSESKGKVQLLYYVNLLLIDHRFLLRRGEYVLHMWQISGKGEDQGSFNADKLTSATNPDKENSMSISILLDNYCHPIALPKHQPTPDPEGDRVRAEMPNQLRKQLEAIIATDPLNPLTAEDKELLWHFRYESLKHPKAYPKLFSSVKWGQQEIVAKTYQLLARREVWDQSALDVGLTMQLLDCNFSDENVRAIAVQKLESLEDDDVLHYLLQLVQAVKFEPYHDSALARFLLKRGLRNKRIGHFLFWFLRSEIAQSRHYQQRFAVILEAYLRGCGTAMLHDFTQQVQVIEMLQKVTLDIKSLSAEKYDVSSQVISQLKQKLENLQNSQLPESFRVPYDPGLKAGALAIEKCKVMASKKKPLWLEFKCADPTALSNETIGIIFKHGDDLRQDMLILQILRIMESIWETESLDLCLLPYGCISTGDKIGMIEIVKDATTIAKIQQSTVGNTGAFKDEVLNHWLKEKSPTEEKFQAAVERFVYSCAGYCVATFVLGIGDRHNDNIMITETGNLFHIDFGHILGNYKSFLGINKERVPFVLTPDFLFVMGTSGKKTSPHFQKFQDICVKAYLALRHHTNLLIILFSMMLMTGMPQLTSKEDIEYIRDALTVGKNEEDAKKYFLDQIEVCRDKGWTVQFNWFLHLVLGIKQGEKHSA

Columns and labels:
Test in all cases: SEC
p110γ R1021P = p110γ R1021P (UniProt P48736)
[1] = target: p110γ, wild type (catalytic subunit of PI3Kγ, encoded by PIK3CG) (UniProt P48736)
p110γ R1021C = p110γ R1021C (UniProt P48736)

- binding (p110γ R1021P): binds
- binding [1]: binds
- binding (p110γ R1021C): binds
B1: p101 regulatory subunit of PI3Kγ (protein, UniProt O02696 1-877)
chain: MQPGATTCTEDRIQHALERCLHGLSLSRRSTSWSAGLCLNCWSLQELVSRDPGHFLILLEQILQKTREVQEKGTYDLLAPLALLFYSTVLCTPHFPPDSDLLLKAARTYHRFLTWPVPYCSICQELLTFIDAELKAPGISYQRLVRAEQGLSTRSHRSSTVTVLLLNPVEVQAEFLDVADKLSTPGPSPHSAYITLLLHAFQATFGAHCDLSGLHRRLQSKTLAELEAIFTETAEAQELASGIGDAAEARQWLRTKLQAVGEKAGFPGVLDTAKPGKLRTIPIPVARCYTYSWNQDSFDILQEILLKEQELLQPEILDDEEDEDEEDEEEDLDADGHCAERDSVLSTGSAASHASTLSLASSQASGPTLSRQLLTSFVSGLSDGVDSGYMEDIEESAYERPRRPGGHERRGHRRPGQKFNRIYKLFKSTSQMVLRRDSRSLEGSPDSGPPLRRAGSLCSPLDSPTLPPSRAQGSRSLPQPKLSPQLPGWLLAPASRHQRRRPFLSGDEDPKASTLRVVVFGSDRISGKVVRAYSNLRRLENNRPLLTRFFKLQFFYVPVKRSRGTGTPTSPAPRSQTPPLPTDAPRHPGPAELGAAPWEESTNDISHYLGMLDPWYERNVLGLMHLPPEVLCQSLKAEPRPLEGSPAQLPILADMLLYYCRFAARPVLLQVYQTELTFITGEKTTEIFIHSLELGHSAATRAIKASGPGSKRLGIDGDREAVPLTLQIIYSKGAISGRSRWSNMEKLCTSVNLSKACRQQEELDSSTEALTLNLTEVVKRQTPKSKKGFNQISTSQIKVDKVQIIGSNSCPFAVCLDQDERKILQSVIRCEVSPCYKPEKSSLCPPPQRPSYPPAPATPDLCSLLCLPIMTFSGALP
